Results are given in words; binding and its absence hold for the method and conditions named.
Tests used:
complement C3 (human) [1] = test: SPR; ~2,000 RU C3 immobilised on a CM5 chip; rHC1 as analyte; HEPES-buffered saline pH 7.5, 0.05% Tween 20, 2 mM MnCl2; both purified
complement C3 (human) [2] = test: SPR; ~2,000 RU C3 immobilised on a CM5 chip by amide coupling; rHC1 or IαI as analyte; HEPES-buffered saline pH 7.5, 0.05% Tween 20, 2 mM Mg2+, 2 mM Mn2+; multicycle kinetics, 1:1 Langmuir; both purified

B1: recombinant inter-α-inhibitor heavy chain 1 (rHC1), D298A MIDAS mutant (protein, UniProt P19827 35-672)
chain: SKSSEKRQAVDTAVDGVFIRSLKVNCKVTSRFAHYVVTSQVVNTANEAREVAFDLEIPKTAFISDFAVTADGNAFIGDIKDKVTAWKQYRKAAISGENAGLVRASGRTMEQFTIHLTVNPQSKVTFQLTYEEVLKRNHMQYEIVIKVKPKQLVHHFEIDVDIFEPQGISKLDAQASFLPKELAAQTIKKSFSGKKGHVLFRPTVSQQQSCPTCSTSLLNGHFKVTYDVSRDKICDLLVANNHFAHFFAPQNLTNMNKNVVFVIAISGSMRGQKVKQTKEALLKILGDMQPGDYFDLVLFGTRVQSWKGSLVQASEANLQAAQDFVRGFSLDEATNLNGGLLRGIEILNQVQESLPELSNHASILIMLTDGDPTEGVTDRSQILKNVRNAIRGRFPLYNLGFGHNVDFNFLEVMSMENNGRAQRIYEDHDATQQLQGFYSQVAKPLLVDVDLQYPQDAVLALTQNHHKQYYEGSEIVVAGRIADNKQSSFKADVQAHGEGQEFSITCLVDEEEMKKLLRERGHMLENHVERLWAYLTIQELLAKRMKVDREERANLSSQALQMSLDYGFVTPLTSMSIRGMADQDGLKPTIDKPSEDSPPLEMLGPRRTFVLSALQPSPTHSSSNTQRLPDRVTGVDTD
In the case of B1, the binding (complement C3 (human) [1]) is reported as “no binding (tested: 1–31.25 μM)” and the binding (complement C3 (human) [2]) is reported as “no binding (tested: 1–31.25 μM)”.
